Laboratory results reported in publication PMC9509632.
Results are given in words; binding and its absence hold for the method and conditions named. Binding seen in cells or lysates may run through a third protein. Some results given as binding are weak or reduced against the parent protein; the word gives no strength.

Sequences of proteins named here, by UniProt entry; tags and fusion partners are left off.
UniProt O14497: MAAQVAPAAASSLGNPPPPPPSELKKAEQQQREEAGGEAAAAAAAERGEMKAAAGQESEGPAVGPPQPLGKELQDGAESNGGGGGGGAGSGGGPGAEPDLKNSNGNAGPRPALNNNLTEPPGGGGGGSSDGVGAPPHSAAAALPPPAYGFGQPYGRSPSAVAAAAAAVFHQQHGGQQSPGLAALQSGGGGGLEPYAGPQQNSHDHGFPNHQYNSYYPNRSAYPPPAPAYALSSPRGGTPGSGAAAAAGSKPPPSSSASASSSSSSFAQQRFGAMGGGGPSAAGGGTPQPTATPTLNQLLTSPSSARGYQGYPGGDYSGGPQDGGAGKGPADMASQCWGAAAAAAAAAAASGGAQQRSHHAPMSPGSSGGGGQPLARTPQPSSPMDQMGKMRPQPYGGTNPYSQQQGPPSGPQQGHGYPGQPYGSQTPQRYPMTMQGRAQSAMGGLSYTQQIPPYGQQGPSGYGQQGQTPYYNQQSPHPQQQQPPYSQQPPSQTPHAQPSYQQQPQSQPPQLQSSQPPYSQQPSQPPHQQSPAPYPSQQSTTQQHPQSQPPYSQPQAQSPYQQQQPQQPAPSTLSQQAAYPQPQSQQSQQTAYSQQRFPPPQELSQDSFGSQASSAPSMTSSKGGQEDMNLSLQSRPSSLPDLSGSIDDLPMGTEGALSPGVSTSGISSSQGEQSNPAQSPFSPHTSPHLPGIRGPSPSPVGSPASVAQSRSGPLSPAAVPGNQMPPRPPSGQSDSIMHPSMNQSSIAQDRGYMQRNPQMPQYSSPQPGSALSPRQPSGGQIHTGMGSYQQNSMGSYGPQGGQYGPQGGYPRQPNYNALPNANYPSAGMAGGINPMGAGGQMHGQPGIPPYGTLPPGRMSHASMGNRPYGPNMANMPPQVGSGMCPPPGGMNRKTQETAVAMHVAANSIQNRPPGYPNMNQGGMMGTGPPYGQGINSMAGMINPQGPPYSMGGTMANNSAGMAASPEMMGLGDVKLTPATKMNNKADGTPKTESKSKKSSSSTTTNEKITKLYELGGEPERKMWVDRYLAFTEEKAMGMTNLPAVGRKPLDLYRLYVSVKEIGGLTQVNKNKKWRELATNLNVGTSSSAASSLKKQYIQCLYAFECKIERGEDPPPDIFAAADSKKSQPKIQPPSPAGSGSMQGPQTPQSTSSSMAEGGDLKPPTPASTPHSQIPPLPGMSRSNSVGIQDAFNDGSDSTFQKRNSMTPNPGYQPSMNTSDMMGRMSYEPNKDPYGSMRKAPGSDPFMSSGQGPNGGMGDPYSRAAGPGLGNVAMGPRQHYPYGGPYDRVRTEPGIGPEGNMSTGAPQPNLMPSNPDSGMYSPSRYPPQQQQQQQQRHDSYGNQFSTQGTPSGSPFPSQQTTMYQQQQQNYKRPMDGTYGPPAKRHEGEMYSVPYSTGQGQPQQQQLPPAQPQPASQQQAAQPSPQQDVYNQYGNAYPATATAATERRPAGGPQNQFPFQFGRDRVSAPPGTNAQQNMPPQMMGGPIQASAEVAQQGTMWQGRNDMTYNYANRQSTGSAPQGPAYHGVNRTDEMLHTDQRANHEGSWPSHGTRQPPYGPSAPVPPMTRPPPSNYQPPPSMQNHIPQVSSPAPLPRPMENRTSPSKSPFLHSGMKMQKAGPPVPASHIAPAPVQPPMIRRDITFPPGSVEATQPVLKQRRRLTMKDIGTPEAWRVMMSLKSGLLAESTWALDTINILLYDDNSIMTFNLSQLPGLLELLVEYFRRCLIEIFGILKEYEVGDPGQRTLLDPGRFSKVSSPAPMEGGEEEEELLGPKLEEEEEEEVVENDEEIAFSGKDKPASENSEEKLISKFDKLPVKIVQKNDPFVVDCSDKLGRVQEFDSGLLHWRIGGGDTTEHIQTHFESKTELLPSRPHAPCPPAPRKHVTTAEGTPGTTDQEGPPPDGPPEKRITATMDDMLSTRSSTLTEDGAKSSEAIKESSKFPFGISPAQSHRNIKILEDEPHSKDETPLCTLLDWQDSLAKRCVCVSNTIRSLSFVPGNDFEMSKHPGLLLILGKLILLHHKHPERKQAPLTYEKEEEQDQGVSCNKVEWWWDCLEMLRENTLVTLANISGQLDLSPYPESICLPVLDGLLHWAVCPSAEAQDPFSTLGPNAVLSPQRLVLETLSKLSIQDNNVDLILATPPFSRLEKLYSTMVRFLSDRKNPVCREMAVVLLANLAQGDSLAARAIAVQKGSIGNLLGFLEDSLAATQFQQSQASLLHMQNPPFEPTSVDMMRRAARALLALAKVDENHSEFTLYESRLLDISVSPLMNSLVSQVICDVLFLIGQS
UniProt Q14839: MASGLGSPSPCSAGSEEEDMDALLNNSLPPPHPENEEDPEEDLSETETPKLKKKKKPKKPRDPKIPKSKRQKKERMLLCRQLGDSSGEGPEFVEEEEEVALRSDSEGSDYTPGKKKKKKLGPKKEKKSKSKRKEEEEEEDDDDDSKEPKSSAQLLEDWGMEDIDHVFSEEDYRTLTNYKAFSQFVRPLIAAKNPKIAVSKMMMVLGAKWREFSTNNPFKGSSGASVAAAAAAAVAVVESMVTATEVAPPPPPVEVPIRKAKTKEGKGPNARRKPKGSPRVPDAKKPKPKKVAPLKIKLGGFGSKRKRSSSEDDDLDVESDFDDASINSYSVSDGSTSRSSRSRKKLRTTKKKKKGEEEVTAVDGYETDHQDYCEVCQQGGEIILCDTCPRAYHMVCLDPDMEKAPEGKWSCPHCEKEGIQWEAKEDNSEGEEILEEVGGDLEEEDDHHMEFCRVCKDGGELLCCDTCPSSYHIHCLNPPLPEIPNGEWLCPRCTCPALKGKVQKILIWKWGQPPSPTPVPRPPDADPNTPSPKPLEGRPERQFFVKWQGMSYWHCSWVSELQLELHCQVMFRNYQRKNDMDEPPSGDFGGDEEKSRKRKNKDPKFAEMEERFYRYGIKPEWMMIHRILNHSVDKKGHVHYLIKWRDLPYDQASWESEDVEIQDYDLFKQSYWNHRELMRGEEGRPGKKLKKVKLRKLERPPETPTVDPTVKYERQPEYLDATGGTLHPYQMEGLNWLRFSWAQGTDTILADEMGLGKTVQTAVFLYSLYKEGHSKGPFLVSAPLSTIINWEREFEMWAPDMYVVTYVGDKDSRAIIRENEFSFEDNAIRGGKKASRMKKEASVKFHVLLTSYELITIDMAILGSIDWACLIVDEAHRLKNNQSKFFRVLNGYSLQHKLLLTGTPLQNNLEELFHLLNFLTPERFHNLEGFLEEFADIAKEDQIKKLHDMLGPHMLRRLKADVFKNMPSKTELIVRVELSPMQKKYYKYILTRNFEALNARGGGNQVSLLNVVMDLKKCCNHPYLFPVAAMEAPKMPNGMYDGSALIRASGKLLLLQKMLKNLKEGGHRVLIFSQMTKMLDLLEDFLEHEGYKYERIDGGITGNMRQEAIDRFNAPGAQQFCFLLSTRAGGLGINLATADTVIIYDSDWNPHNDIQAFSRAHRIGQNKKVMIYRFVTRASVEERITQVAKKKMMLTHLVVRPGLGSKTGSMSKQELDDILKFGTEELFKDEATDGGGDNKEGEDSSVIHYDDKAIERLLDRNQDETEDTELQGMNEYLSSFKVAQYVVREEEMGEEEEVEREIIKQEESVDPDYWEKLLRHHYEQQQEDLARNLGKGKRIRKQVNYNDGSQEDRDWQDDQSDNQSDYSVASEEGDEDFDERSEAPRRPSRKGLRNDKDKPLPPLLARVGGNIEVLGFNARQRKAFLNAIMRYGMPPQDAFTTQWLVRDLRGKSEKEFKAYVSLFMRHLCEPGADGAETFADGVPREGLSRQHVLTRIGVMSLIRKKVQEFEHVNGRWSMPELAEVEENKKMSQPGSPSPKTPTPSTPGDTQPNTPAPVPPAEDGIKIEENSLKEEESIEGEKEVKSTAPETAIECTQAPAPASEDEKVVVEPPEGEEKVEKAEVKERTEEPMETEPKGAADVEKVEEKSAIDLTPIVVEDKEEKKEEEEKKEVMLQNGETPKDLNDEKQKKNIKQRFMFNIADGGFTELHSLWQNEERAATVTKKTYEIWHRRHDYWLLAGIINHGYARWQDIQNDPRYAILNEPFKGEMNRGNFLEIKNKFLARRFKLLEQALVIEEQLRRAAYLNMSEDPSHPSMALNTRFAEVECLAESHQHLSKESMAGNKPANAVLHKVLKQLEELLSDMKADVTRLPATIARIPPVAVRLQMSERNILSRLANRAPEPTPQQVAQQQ

Target: ARID1A (human (endogenous in 12Z)) (UniProt O14497)
Assay: co-IP; 12Z nuclear extract (500 ug) in IP buffer (20 mM HEPES, 150 mM KCl, 10% glycerol, 0.2 mM EDTA, 0.1% Tween-20, 0.5 mM DTT); anti-ARID1A (D2A8U) or anti-CHD4 (D8B12) on Protein A Dynabeads, overnight at 4 °C; washes at 150, 300, 100 and 60 mM KCl; normal rabbit IgG as control; immunoblot

For CHD4 (from UniProt Q14839 1-1912), the binding was “binds”.
